These results are taken from publication PMC7819137.

Assay [1] addresses T1, GST-USP47 (ubiquitin-specific protease 47) (UniProt Q96K76).
T1 sequence: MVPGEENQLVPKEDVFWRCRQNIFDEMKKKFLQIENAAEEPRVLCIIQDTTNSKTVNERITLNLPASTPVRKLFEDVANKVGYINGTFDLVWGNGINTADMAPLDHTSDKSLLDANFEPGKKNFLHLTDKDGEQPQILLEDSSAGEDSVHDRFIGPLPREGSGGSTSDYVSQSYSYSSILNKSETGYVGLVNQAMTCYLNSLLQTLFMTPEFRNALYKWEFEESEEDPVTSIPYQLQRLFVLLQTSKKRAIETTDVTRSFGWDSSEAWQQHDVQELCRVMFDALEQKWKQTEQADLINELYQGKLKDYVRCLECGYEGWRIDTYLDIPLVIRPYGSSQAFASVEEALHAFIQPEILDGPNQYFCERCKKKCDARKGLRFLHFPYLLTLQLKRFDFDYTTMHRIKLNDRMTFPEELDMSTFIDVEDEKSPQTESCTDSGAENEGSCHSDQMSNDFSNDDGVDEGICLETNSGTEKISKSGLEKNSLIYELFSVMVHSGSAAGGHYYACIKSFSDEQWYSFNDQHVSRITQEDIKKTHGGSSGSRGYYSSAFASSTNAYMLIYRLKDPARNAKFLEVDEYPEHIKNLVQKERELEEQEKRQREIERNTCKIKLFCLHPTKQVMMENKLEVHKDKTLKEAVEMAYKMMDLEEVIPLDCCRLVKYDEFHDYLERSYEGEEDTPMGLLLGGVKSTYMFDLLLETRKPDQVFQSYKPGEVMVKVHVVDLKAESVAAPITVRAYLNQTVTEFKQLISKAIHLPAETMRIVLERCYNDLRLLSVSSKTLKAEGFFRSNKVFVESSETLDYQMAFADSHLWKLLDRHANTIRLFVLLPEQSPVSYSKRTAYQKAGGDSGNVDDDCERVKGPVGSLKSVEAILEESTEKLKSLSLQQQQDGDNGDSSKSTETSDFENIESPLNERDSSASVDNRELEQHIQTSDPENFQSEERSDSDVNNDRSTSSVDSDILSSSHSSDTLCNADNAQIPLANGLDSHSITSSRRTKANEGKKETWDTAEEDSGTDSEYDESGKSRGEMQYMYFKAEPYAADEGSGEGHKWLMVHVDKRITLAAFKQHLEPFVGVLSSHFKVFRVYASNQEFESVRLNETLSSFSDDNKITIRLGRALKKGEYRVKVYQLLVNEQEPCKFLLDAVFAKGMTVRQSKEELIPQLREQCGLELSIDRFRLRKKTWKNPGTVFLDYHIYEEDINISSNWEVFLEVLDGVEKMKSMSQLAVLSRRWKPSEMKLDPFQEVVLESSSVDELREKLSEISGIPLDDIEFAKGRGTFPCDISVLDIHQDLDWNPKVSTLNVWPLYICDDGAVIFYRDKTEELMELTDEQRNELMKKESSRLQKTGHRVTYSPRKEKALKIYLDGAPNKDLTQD
The assay can be described thus: pull-down; GST/GST-USP47 (5 µg) incubated with purified FLAG-MAPK at 4°C overnight; captured on glutathione agarose; Western blot; both purified. Background: A western blot detects proteins with antibodies after separation by electrophoresis.

Assay [2] deals with FLAG-MAPK (mitogen-activated protein kinase). The experiment in a line: co-IP; overexpression in 293T cells; 1 mg lysate protein with FLAG antibody and Protein A & G agarose, 4°C, 2-4 h; Western blot.

No constants are given. Whether binding was seen depends on the method and setting. A result given as binding can be weak or reduced; the word gives no strength. For some assays here: Tags and fused reporters may be left off the sequences shown. For some assays here: Binding seen in cells or lysates may run through a third protein.

For the molecule “FLAG-MAPK (mitogen-activated protein kinase) (enzyme)”, the binding result in assay [1] is recorded as “binds”.

B1: USP47 (ubiquitin-specific protease 47), overexpressed in 293T cells (enzyme, UniProt Q96K76 1-1375)
chain: T1 sequence
As for B1, in assay [2], the binding result is “binds”.
